No constants are given. Whether binding was seen depends on the method and setting. In cells and extracts the contact can be indirect. Some entries that bind do so weakly or less than the wild type.

Chains of the proteins cited; added tags and fusions are not shown. Residues count along the entry.
UniProt Q14764: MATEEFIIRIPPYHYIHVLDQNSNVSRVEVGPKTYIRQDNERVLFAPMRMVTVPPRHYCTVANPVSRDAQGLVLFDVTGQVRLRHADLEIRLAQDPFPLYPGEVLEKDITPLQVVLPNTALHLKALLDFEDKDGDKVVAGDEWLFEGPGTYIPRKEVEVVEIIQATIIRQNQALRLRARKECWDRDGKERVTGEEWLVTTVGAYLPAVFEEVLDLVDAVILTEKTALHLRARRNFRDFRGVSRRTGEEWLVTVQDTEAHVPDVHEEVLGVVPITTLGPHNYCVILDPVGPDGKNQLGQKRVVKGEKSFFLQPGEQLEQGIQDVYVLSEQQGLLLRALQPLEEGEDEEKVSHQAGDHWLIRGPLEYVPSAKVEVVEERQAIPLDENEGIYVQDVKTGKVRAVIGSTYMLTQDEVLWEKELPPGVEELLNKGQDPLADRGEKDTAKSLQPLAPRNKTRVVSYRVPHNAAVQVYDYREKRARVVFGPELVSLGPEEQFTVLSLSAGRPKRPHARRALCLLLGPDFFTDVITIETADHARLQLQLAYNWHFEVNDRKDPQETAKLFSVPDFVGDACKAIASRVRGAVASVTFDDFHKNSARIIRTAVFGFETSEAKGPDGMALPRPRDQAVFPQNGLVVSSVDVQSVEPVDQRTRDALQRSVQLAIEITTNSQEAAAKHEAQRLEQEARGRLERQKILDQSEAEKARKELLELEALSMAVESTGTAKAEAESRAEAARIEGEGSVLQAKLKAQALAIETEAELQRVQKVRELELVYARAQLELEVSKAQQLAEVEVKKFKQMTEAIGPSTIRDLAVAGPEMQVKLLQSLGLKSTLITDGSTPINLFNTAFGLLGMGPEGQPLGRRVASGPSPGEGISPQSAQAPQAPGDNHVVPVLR
UniProt P08151: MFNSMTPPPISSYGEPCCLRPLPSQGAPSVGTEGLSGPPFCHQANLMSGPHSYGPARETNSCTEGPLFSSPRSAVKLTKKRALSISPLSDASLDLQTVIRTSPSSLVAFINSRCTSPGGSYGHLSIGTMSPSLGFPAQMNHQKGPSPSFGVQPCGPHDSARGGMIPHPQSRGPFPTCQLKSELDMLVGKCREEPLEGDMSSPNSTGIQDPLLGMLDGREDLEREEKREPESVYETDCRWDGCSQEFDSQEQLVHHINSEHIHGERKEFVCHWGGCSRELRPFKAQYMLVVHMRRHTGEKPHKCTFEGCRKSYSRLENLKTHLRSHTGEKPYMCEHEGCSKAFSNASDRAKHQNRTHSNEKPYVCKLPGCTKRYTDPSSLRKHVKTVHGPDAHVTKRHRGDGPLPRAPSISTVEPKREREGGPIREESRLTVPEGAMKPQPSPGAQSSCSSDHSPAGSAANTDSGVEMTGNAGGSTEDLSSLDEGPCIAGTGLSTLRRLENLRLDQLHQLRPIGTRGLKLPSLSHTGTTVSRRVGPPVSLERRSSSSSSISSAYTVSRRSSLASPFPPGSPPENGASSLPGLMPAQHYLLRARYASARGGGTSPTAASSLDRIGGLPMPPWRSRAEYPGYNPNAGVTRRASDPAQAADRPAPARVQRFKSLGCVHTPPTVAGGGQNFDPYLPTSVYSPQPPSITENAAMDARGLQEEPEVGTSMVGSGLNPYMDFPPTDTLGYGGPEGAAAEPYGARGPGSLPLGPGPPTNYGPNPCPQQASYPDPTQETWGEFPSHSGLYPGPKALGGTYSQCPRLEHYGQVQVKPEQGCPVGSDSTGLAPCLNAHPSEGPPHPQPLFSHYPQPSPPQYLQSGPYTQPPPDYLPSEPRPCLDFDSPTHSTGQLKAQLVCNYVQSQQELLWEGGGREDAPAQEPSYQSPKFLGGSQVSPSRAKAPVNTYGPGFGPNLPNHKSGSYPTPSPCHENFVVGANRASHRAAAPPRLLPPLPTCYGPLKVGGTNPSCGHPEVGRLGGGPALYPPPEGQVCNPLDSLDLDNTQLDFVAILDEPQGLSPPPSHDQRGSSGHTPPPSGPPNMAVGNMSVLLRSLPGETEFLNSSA
UniProt P10809, residues 27-573: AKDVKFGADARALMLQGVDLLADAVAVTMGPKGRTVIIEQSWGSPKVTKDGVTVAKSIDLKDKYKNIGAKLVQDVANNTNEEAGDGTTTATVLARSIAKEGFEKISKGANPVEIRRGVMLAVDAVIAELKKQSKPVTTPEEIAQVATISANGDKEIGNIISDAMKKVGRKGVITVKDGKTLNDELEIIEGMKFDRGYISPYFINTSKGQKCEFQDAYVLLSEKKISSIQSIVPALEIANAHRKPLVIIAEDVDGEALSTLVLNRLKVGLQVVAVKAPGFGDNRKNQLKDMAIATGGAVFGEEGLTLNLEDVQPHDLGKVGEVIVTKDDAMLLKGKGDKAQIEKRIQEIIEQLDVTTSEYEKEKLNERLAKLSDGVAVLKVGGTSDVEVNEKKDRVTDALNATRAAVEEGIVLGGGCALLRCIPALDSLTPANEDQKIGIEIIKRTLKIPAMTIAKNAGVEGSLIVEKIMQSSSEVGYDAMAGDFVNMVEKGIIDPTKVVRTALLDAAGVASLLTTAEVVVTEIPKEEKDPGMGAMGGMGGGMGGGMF
UniProt Q05639: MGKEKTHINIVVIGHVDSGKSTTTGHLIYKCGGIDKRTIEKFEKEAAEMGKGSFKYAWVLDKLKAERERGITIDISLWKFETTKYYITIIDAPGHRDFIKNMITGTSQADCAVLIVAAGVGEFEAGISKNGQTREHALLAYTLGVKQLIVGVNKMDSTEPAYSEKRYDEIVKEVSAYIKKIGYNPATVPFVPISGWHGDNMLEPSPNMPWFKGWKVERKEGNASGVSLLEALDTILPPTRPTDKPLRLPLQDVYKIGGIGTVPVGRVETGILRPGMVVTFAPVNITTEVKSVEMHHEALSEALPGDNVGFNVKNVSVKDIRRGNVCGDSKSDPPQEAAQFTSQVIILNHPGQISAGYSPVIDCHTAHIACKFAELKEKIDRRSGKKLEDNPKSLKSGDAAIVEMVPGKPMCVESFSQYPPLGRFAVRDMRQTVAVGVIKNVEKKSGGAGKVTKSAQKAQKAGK
UniProt P23443: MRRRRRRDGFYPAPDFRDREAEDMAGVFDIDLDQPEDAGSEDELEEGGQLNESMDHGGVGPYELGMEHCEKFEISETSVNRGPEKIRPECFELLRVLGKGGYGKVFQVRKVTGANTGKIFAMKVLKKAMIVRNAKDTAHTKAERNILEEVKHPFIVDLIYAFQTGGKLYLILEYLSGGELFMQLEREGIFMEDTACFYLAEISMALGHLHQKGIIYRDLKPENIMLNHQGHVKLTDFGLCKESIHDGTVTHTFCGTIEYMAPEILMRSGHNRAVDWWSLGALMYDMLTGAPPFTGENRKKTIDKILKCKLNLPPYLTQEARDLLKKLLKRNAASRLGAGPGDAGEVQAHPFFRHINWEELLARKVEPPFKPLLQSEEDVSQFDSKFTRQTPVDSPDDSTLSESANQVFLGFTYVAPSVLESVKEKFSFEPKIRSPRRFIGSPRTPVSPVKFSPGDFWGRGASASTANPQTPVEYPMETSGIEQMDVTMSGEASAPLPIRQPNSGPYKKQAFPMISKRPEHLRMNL

The target of assay [1] is GFP tagged human full-length MVP (human) (UniProt Q14764). The assay is described as follows: co-IP; HEK-293T transiently transfected with Flag-GLI1 or Flag-tagged GLI1 truncations together with GFP-MVP, lysed 48 h after transfection; IP with Flag or GFP antibody, western blot. In general terms: A western blot detects proteins with antibodies after separation by electrophoresis.

The target in assay [2] is Flag-tagged GLI1 (HEK-293T) (human) (UniProt P08151). The description is as above.
In assay [3] the target is major vault protein (endogenous) (human (endogenous in SW1353 and HCS2/8)) (UniProt Q14764). The assay is described as follows: co-IP; endogenous proteins in whole-cell lysates of chondrosarcoma cells (SW1353, HCS2/8); primary antibody overnight at 4 °C, protein A/G PLUS-agarose, western blot; IgG control.
The target of assay [4] is GLI1 (endogenous) (human (endogenous in SW1353 and HCS2/8)) (UniProt P08151). The assay is described as above.
In assay [5] the target is 3xFlag tagged human full-length GLI1 (stable in SW1353) (human) (UniProt P08151). The assay is described as follows: co-IP; SW1353 cells stably over-expressing Flag-tagged GLI1, IP with Flag antibody, western blot; with knock-down of MVP or over-expression of MVP.

For the substance “Flag-tagged GLI1 (HEK-293T) (from UniProt P08151 1-1106)”, in assay [1], the binding entry was “binds”. “GFP tagged human full-length MVP (from UniProt Q14764 1-893)”: the binding result in assay [2] is recorded as “binds”. Regarding “GLI1 (endogenous) (from UniProt P08151 1-1106)”, the binding entry in assay [3] is “binds”.

Consider HSP60 (from UniProt P10809 27-573), for which the binding result in assay [4] was “binds”. For the substance eEF1A2 (from UniProt Q05639 1-463), the binding entry in assay [4] is listed as “binds”. For the substance “major vault protein (endogenous) (from UniProt Q14764 1-893)”, the binding entry in assay [5] and in assay [4] was “binds” each time. Regarding “p70S6K1 (endogenous, HEK-293T) (from UniProt P23443 1-525)”, the binding result in assay [2] and in assay [1] was “binds” throughout. Regarding “p70S6K1 (endogenous, SW1353) (from UniProt P23443 1-525)”, in assay [3], the binding entry was “binds”.

The record behind these values is paper PMC8257592.
